This data set is described as follows: general procedure: solution-phase peptide synthesis; DCC/DMAP; FDPP (macrolactamization). The following applies: late stage modification step.
Consider Cryptophycin 53, for which the step yield is 25%.
To Cryptophycin 56 belongs 44% yield.
To Cryptophycin 61 belongs 37%; to Cryptophycin 55, 48%; to Cryptophycin 52, 48%.

Values taken from patent publication US6013626A (priority 1995, dated 2000).
